For at least one compound, name, drawing or mass did not settle the structure.
Tests used:
[1] = Control of coloration in an aqueous solution formulation containing sodium bicarbonate (absorbance 380 nm); type: physicochemical; settings: for change in absorbance, just after dissolution / change in absorbance, preservation time 1 hr / change in absorbance, preservation time 2 hr / change in absorbance, preservation time 3 hr / change in absorbance, preservation time 4 hr / change in absorbance, preservation time 5 hr / change in absorbance, preservation time 6 hr: 25° C., 380 nm
Method: Multiple vials were prepared, and Compound A, imipenem and sodium bicarbonate in amounts indicated in Table 11 were weighed, respectively and each mixture was put in each vial. A physiological saline (100 ml) was added to each vial to be dissolved. In addition, to a vial containing Tienam® for infusion (0.5 g potency/vial) was added a physiological saline (100 ml). Coloration (change of color) just after dissolution and when the solution was preserved at one hour intervals for 6 hours at 25° C. were measured by absorbency.
• Conditions of measurement by spectrophotometer; • cell: quartz 12.5 mm×12.5 mm×45 mm, capacity 3.5 ml • wavelength: 380 nm • measurement temperature: 25° C. • instrument: UV-2200A (Shimadzu)
The numbers described in columns of “just after dissolution” and each “preservation time” on Table 12 show values of change in absorbance just after dissolution when measured under the above conditions.

[2] = Control of coloration in an aqueous solution formulation containing sodium carbonate (absorbance 380 nm); type: physicochemical; settings: 25° C.
Method: Multiple vials were prepared, and sodium carbonate, Compound A and imipenem in amounts indicated in Table 14 were weighed, respectively and each mixture was put in each vial. A physiological saline (100 ml) was added to each vial to be dissolved. Coloration (change of color) just after dissolution and when the solution was preserved at one hour intervals for 6 hours at 25° C. were measured by absorbency on Compound A and imipenem.
• Condition of measurement by spectrophotometer • cell: quartz 12.5 mm×12.5 mm×45 mm, capacity 3.5 ml • wavelength: 380 nm • measurement temperature: 25° C. • instrument: UV-2200A (Shimadzu)
The numbers described in columns of “just after dissolution” and each “preservation time” on Table 15 show values of change in absorbance just after dissolution when measured under the above conditions.

[3] = 0.5 g/vial + sodium bicarbonate 0.0 mg/vial in physiological saline 100 ml
[4] = 0.5 g/vial + sodium bicarbonate 1.0 mg/vial in physiological saline 100 ml
[5] = 0.5 g/vial + sodium bicarbonate 2.5 mg/vial in physiological saline 100 ml
[6] = 0.5 g/vial + sodium bicarbonate 5.0 mg/vial in physiological saline 100 ml
[7] = 0.5 g/vial + sodium bicarbonate 10 mg/vial in physiological saline 100 ml
[8] = 0.5 g/vial + sodium bicarbonate 20 mg/vial in physiological saline 100 ml
[9] = 0.5 g/vial + sodium bicarbonate 50 mg/vial in physiological saline 100 ml
[10] = 0.5 g/vial + sodium carbonate 0.0 mg/vial in physiological saline 100 ml
[11] = 0.5 g/vial + sodium carbonate 1.0 mg/vial in physiological saline 100 ml
[12] = 0.5 g/vial + sodium carbonate 1.5 mg/vial in physiological saline 100 ml
[13] = 0.5 g/vial + sodium carbonate 2.0 mg/vial in physiological saline 100 ml
[14] = 0.5 g/vial + sodium carbonate 2.5 mg/vial in physiological saline 100 ml
[15] = 0.5 g/vial + sodium carbonate 3.0 mg/vial in physiological saline 100 ml

SMILES: C[C@@H](O)[C@H]1C(=O)N2C(C(=O)O)=C(SCCN=CN)C[C@H]12 [imipenem, reference compound]
- change in absorbance, just after dissolution [1, 3]: 0.00 Abs
- change in absorbance, preservation time 1 hr [1, 3]: 1.12 Abs
- change in absorbance, preservation time 2 hr [1, 3]: 3.42 Abs
- change in absorbance, preservation time 3 hr [1, 3]: 3.99 Abs
- change in absorbance, preservation time 4 hr [1, 3]: 4.47 Abs
- change in absorbance, preservation time 5 hr [1, 3]: 4.47 Abs
- change in absorbance, preservation time 6 hr [1, 3]: 4.65 Abs
- change in absorbance, just after dissolution [1, 4]: 0.00 Abs
- change in absorbance, preservation time 1 hr [1, 4]: 0.07 Abs
- change in absorbance, preservation time 2 hr [1, 4]: 0.19 Abs
- change in absorbance, preservation time 3 hr [1, 4]: 0.30 Abs
- change in absorbance, preservation time 4 hr [1, 4]: 0.39 Abs
- change in absorbance, preservation time 5 hr [1, 4]: 0.41 Abs
- change in absorbance, preservation time 6 hr [1, 4]: 0.42 Abs
- change in absorbance, just after dissolution [1, 5]: 0.00 Abs
- change in absorbance, preservation time 1 hr [1, 5]: 0.03 Abs
- change in absorbance, preservation time 2 hr [1, 5]: 0.06 Abs
- change in absorbance, preservation time 3 hr [1, 5]: 0.10 Abs
- change in absorbance, preservation time 4 hr [1, 5]: 0.17 Abs
- change in absorbance, preservation time 5 hr [1, 5]: 0.25 Abs
- change in absorbance, preservation time 6 hr [1, 5]: 0.38 Abs
- change in absorbance, just after dissolution [1, 6]: 0.00 Abs
- change in absorbance, preservation time 1 hr [1, 6]: 0.01 Abs
- change in absorbance, preservation time 2 hr [1, 6]: 0.02 Abs
- change in absorbance, preservation time 3 hr [1, 6]: 0.03 Abs
- change in absorbance, preservation time 4 hr [1, 6]: 0.04 Abs
- change in absorbance, preservation time 5 hr [1, 6]: 0.05 Abs
- change in absorbance, preservation time 6 hr [1, 6]: 0.07 Abs
- change in absorbance, just after dissolution [1, 7]: 0.00 Abs
- change in absorbance, preservation time 1 hr [1, 7]: 0.01 Abs
- change in absorbance, preservation time 2 hr [1, 7]: 0.01 Abs
- change in absorbance, preservation time 3 hr [1, 7]: 0.02 Abs
- change in absorbance, preservation time 4 hr [1, 7]: 0.03 Abs
- change in absorbance, preservation time 5 hr [1, 7]: 0.04 Abs
- change in absorbance, preservation time 6 hr [1, 7]: 0.05 Abs
- change in absorbance, just after dissolution [1, 8]: 0.00 Abs
- change in absorbance, preservation time 1 hr [1, 8]: 0.01 Abs
- change in absorbance, preservation time 2 hr [1, 8]: 0.01 Abs
- change in absorbance, preservation time 3 hr [1, 8]: 0.02 Abs
- change in absorbance, preservation time 4 hr [1, 8]: 0.03 Abs
- change in absorbance, preservation time 5 hr [1, 8]: 0.04 Abs
- change in absorbance, preservation time 6 hr [1, 8]: 0.05 Abs
- change in absorbance, just after dissolution [1, 9]: 0.00 Abs
- change in absorbance, preservation time 1 hr [1, 9]: 0.00 Abs
- change in absorbance, preservation time 2 hr [1, 9]: 0.00 Abs
- change in absorbance, preservation time 3 hr [1, 9]: 0.01 Abs
- change in absorbance, preservation time 4 hr [1, 9]: 0.01 Abs
- change in absorbance, preservation time 5 hr [1, 9]: 0.02 Abs
- change in absorbance, preservation time 6 hr [1, 9]: 0.03 Abs
- coloration by the visual inspection ([1]; sodium bicarbonate 5.0 mg, 10 mg and 20 mg per 500 mg, physiological saline, 6 hours at 25° C.): coloration was observed by the visual inspection
- change in absorbance, just after dissolution [2, 10]: 0.00 Abs
- change in absorbance, preservation time 1 hr [2, 10]: 1.12 Abs
- change in absorbance, preservation time 2 hr [2, 10]: 3.42 Abs
- change in absorbance, preservation time 3 hr [2, 10]: 3.99 Abs
- change in absorbance, preservation time 4 hr [2, 10]: 4.47 Abs
- change in absorbance, preservation time 5 hr [2, 10]: 4.47 Abs
- change in absorbance, preservation time 6 hr [2, 10]: 4.65 Abs
- change in absorbance, just after dissolution [2, 11]: 0.00 Abs
- change in absorbance, preservation time 1 hr [2, 11]: 0.05 Abs
- change in absorbance, preservation time 2 hr [2, 11]: 0.18 Abs
- change in absorbance, preservation time 3 hr [2, 11]: 0.38 Abs
- change in absorbance, preservation time 4 hr [2, 11]: 1.00 Abs
- change in absorbance, preservation time 5 hr [2, 11]: 2.08 Abs
- change in absorbance, preservation time 6 hr [2, 11]: 3.44 Abs
- change in absorbance, just after dissolution [2, 12]: 0.00 Abs
- change in absorbance, preservation time 1 hr [2, 12]: 0.03 Abs
- change in absorbance, preservation time 2 hr [2, 12]: 0.09 Abs
- change in absorbance, preservation time 3 hr [2, 12]: 0.16 Abs
- change in absorbance, preservation time 4 hr [2, 12]: 0.37 Abs
- change in absorbance, preservation time 5 hr [2, 12]: 0.75 Abs
- change in absorbance, preservation time 6 hr [2, 12]: 1.39 Abs
- change in absorbance, just after dissolution [2, 13]: 0.00 Abs
- change in absorbance, preservation time 1 hr [2, 13]: 0.02 Abs
- change in absorbance, preservation time 2 hr [2, 13]: 0.06 Abs
- change in absorbance, preservation time 3 hr [2, 13]: 0.10 Abs
- change in absorbance, preservation time 4 hr [2, 13]: 0.20 Abs
- change in absorbance, preservation time 5 hr [2, 13]: 0.35 Abs
- change in absorbance, preservation time 6 hr [2, 13]: 0.58 Abs
- change in absorbance, just after dissolution [2, 14]: 0.00 Abs
- change in absorbance, preservation time 1 hr [2, 14]: 0.01 Abs
- change in absorbance, preservation time 2 hr [2, 14]: 0.04 Abs
- change in absorbance, preservation time 3 hr [2, 14]: 0.07 Abs
- change in absorbance, preservation time 4 hr [2, 14]: 0.13 Abs
- change in absorbance, preservation time 5 hr [2, 14]: 0.20 Abs
- change in absorbance, preservation time 6 hr [2, 14]: 0.30 Abs
- change in absorbance, just after dissolution [2, 15]: 0.00 Abs
- change in absorbance, preservation time 1 hr [2, 15]: 0.01 Abs
- change in absorbance, preservation time 2 hr [2, 15]: 0.03 Abs
- change in absorbance, preservation time 3 hr [2, 15]: 0.06 Abs
- change in absorbance, preservation time 4 hr [2, 15]: 0.09 Abs
- change in absorbance, preservation time 5 hr [2, 15]: 0.14 Abs
- change in absorbance, preservation time 6 hr [2, 15]: 0.20 Abs
